Measured values: publication PMC12221972
These are yes or no findings as the source states them, for the method shown. Binding seen in cells or lysates may run through a third protein. A result given as binding can be weak or reduced; the word gives no strength.

By UniProt entry, the sequences of proteins in these tests, tags left out. Where a name states a change or a piece, a line headed by the entry shows the natural chain unless it says otherwise.
UniProt Q8IIS4: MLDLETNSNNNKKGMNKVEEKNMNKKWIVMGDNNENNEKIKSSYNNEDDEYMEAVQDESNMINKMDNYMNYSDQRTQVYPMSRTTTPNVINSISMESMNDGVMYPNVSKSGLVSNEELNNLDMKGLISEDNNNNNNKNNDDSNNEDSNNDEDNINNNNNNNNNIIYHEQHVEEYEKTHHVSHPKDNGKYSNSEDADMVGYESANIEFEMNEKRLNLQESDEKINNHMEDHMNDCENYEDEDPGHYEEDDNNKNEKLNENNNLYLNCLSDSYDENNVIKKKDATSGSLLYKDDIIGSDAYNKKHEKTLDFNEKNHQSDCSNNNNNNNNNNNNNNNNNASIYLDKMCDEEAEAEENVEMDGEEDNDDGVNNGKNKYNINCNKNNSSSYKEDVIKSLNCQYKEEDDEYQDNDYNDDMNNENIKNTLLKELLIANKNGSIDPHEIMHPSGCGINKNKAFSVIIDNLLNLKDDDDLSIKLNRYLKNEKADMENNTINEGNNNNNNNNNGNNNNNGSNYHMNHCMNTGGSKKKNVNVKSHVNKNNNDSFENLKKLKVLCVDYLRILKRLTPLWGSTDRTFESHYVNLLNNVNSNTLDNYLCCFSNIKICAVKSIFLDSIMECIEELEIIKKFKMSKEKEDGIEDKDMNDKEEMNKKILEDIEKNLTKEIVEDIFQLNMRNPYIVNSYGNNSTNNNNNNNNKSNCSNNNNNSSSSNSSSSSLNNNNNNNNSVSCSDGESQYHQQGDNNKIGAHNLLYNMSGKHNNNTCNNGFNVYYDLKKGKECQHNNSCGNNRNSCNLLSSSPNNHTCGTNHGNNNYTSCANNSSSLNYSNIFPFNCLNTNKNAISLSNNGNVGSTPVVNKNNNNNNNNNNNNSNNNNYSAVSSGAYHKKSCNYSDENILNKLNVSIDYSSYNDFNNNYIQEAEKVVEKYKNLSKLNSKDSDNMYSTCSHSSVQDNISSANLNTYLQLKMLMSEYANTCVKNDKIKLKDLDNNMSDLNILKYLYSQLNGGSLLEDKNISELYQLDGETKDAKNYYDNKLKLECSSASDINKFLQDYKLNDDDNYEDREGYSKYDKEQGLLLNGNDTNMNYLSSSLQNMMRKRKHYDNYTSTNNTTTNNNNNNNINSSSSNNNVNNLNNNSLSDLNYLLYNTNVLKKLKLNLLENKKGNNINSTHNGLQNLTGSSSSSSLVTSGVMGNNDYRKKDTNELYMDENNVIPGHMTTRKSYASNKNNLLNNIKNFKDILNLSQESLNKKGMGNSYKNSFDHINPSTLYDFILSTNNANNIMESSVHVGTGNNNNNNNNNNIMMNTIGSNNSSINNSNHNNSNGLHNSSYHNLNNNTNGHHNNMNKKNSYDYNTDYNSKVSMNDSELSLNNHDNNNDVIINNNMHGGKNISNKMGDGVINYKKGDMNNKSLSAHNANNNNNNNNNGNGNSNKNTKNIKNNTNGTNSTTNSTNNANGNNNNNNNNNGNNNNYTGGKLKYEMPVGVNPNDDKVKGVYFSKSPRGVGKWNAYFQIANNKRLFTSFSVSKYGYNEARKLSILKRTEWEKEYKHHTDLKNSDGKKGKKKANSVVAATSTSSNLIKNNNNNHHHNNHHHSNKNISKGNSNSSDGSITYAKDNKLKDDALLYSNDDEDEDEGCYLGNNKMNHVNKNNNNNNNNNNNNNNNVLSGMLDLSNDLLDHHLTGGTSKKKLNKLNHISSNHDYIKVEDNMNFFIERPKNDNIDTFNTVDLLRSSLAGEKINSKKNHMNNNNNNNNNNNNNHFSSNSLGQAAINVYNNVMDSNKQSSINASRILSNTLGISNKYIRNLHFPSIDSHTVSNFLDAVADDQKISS
UniProt Q8IKF6: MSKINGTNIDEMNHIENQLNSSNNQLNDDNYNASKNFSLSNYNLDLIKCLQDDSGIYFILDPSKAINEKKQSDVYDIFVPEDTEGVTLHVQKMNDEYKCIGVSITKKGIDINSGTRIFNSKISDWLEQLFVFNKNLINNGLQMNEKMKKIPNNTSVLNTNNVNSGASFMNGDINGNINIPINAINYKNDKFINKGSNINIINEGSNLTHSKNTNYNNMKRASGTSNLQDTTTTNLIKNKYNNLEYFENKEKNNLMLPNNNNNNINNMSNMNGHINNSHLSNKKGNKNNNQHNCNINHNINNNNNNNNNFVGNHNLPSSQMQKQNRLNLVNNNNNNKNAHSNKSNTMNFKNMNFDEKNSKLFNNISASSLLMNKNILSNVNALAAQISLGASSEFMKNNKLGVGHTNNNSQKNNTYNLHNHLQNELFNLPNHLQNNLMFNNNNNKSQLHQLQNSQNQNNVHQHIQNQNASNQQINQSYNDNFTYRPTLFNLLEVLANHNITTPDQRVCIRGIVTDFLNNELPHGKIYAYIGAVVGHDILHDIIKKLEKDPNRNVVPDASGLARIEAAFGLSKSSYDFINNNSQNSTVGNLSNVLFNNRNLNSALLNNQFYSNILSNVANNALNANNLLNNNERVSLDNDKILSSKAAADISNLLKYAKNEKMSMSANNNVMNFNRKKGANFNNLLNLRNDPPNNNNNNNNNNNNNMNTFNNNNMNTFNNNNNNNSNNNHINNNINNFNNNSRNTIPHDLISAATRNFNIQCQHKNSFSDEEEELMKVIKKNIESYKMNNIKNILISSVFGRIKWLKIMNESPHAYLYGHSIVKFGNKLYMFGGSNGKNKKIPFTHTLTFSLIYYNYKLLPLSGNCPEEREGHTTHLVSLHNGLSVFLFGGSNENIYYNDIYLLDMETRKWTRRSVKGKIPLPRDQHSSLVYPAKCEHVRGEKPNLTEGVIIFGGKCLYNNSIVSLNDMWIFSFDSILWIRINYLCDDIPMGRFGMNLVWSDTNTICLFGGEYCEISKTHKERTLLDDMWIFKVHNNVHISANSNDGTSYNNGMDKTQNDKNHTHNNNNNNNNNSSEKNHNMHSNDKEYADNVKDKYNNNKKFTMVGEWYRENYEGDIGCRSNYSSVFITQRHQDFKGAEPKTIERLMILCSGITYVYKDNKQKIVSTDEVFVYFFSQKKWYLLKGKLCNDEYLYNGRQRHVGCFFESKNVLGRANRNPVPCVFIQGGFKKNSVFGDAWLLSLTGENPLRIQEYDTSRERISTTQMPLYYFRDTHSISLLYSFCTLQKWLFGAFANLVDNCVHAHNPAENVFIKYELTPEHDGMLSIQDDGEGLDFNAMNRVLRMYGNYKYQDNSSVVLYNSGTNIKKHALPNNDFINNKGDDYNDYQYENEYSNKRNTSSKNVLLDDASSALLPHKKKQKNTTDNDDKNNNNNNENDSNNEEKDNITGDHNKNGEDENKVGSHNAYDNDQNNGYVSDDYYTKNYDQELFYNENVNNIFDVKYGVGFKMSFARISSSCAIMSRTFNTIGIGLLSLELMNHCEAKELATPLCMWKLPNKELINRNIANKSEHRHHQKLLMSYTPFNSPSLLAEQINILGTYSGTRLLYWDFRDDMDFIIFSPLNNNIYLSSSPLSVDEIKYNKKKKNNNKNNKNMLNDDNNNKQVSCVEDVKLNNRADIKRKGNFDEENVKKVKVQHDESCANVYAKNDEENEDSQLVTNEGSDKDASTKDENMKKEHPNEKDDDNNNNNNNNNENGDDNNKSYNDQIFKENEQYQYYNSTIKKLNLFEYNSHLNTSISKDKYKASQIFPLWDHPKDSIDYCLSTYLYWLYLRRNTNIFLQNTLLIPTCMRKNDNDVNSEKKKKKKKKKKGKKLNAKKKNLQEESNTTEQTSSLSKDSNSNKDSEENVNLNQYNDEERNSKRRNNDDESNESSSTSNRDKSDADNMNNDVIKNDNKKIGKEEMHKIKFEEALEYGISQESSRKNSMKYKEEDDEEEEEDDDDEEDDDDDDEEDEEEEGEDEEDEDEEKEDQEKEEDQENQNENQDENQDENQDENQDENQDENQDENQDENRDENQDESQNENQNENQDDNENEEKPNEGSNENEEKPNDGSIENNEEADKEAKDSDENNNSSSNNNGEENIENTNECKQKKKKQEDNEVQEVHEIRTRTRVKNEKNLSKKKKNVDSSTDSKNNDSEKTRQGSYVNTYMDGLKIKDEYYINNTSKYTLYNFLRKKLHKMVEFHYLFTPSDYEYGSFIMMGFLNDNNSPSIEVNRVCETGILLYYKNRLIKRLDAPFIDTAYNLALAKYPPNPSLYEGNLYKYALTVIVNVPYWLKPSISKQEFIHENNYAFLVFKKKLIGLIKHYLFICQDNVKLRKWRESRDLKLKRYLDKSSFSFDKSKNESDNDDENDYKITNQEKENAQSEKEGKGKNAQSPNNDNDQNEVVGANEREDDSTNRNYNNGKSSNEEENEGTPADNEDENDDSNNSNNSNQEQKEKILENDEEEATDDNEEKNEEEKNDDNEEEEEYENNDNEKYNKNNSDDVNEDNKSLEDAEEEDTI

Target: AP2-P-3HA (Plasmodium falciparum (3D7)) (UniProt Q8IIS4)
Assay: co-IP; AP2-P-3HA-glmS:MORC-GFP parasites cross-linked at 36 hpi; anti-HA antibody (or IgG as control) on Protein G Dynabeads incubated with diluted nuclear lysates 4 h at 4 °C; western blot with anti-HA, anti-GFP and anti-H3

MORC-GFP (from UniProt Q8IKF6)
binding: binds
